These are yes or no findings as the source states them, for the method shown. In cells and extracts the contact can be indirect. Some binding calls cover weakened binding; strength is not graded here. For part of these data: Where a sequence is shown, tags or fusion partners need not be part of it.
Assays:
[1] = molecular target: endogenously expressed p53 (human (endogenous in SK-N-SH and A172)) (UniProt P04637); assay: co-IP; endogenous LHX9 and p53 in SK-N-SH and A172 cell lysate; primary antibody overnight at 4 °C, protein A gel beads 4 h, PBST washes; Western blot
fusion protein GST-p53 = fusion protein GST-p53 (UniProt P04637); assay: pull-down; 10 μg of GST-p53 fusion protein incubated with SK-N-SH and A172 cell lysate at 4 °C overnight, Sepharose 4B GST gel beads 4 h, washed 3 times with PBST; Western blot; only the target purified
HA-p53 = HA-p53 (UniProt P04637); assay: co-IP; exogenously expressed Flag-LHX9 and HA-p53; lysate with primary antibody overnight at 4 °C, protein A gel beads 4 h, PBST washes; Western blot

Row | binding [1] | binding (fusion protein GST-p53) | binding (HA-p53) | Binder
1 | binds | binds | – | endogenously expressed LHX9 (protein, UniProt Q9NQ69 1-397) MEIVGCRAEDNSCPFRPPAMLFHGISGGHIQGIMEEMERRSKTEARLAKGAQLNGRDAGMPPLSPEKPALCAGCGGKISDRYYLLAVDKQWHLRCLKCCECKLALESELTCFAKDGSIYCKEDYYRRFSVQRCARCHLGISASEMVMRARDSVYHLSCFTCSTCNKTLTTGDHFGMKDSLVYCRAHFETLLQGEYPPQLSYTELAAKSGGLALPYFNGTGTVQKGRPRKRKSPALGVDIVNYNSGCNENEADHLDRDQQPYPPSQKTKRMRTSFKHHQLRTMKSYFAINHNPDAKDLKQLAQKTGLTKRVLQVWFQNARAKFRRNLLRQENGGVDKADGTSLPAPPSADSGALTPPGTATTLTDLTNPTITVVTSVTSNMDSHESGSPSQTTLTNLF
2 | – | – | binds | flag-tagged LHX9 (Flag-LHX9) (protein, UniProt Q9NQ69 1-397) MEIVGCRAEDNSCPFRPPAMLFHGISGGHIQGIMEEMERRSKTEARLAKGAQLNGRDAGMPPLSPEKPALCAGCGGKISDRYYLLAVDKQWHLRCLKCCECKLALESELTCFAKDGSIYCKEDYYRRFSVQRCARCHLGISASEMVMRARDSVYHLSCFTCSTCNKTLTTGDHFGMKDSLVYCRAHFETLLQGEYPPQLSYTELAAKSGGLALPYFNGTGTVQKGRPRKRKSPALGVDIVNYNSGCNENEADHLDRDQQPYPPSQKTKRMRTSFKHHQLRTMKSYFAINHNPDAKDLKQLAQKTGLTKRVLQVWFQNARAKFRRNLLRQENGGVDKADGTSLPAPPSADSGALTPPGTATTLTDLTNPTITVVTSVTSNMDSHESGSPSQTTLTNLF
